Experimental data from PubChem BioAssay AID1347076 (National Center for Advancing Translational Sciences (NCATS), 2019).
Out of some 400,000 compounds screened, about 13,000 (3.2%) were called active. The inconclusive results got no clear call from the source; some entries with a clear call stand among them for comparison. Calls come from the whole dose curve; as a rule, active = well fitted cell-killing curve with a large enough effect; inconclusive = small, poorly fitted or top-dose-only effect, or effect the other way; inactive = flat fitted curve, though single readings scatter. Where the call is inconclusive, the potency comes from a doubtful curve fit.

Test: qHTS assay for MDR1-selective chemotherapeutics: Primary screen using the drug-selected MDR subline cells KB-V1; note: nearly all actives have a fitted effect of over 60% in size
Settings: KB-V1 MDR cells viability, CellTiter-Glo, 72 h; activity change, negative = cytotoxicity: at 46.1 µM (top of the series)
In short: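 Compound-treated KB-V1 multidrug-resistant cells, 72 h, 37 degrees C; viability by CellTiter-Glo. Fitted qHTS curves give the values.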
% is set by controls: 0 for no effect and ±100 for the full control effect; potency is the fitted concentration of half-maximal effect.

Row | Structure (SMILES) | Potency | activity change, negative = cytotoxicity
1 | CNC(=S)N(CCc1ccccc1)Cc1cc2cc(OC)c(OC)cc2[nH]c1=O | inconclusive: 14.6 µM [cytotoxic, partial curve] | 
2 | OCC(O)C[n+]1cccc(Br)c1 (centres undefined) |  | inactive: 16.7%
3 | COC(=O)[C@@]12C[C@@H](CC(=O)NCc3cccc4ccccc34)C(=O)N(Cc3ccc4c(c3)OCO4)C1=CCC(C)(C)C2 | active: 23.1 µM | 
4 | O=C(Nc1c(Cl)cc2c(c1Cl)Cc1cc([N+](=O)[O-])ccc1-2)C(Cl)Cl | inconclusive: 5.17 µM [cytotoxic, full curve] | 
5 | COc1cccc(/C=N/n2c(-c3cc(C)[nH]n3)n[nH]c2=S)c1OC |  | inactive: 13.6%
6 | COc1cc(OC)cc(C(=O)N[C@H](C(=O)Nc2nc3ccccc3[nH]2)C(C)C)c1 | active: 14.6 µM | 
7 | O=C(CSc1ncn[nH]1)Nc1ccc2c(c1)CCC2 | inconclusive: 18.4 µM [cytotoxic, single point] | 
8 | CCn1c(Cl)c(C=O)s/c1=N\S(=O)(=O)c1ccccc1 | inconclusive: 20.6 µM [cytotoxic, single point] | 
9 | O=C(CN1C(=O)/C(=C/c2ccco2)SC1=S)NC1CCS(=O)(=O)C1 (centres undefined) | inconclusive: 18.4 µM [rising, single point] | 
10 | COc1ccc(-c2cc(-c3nnc(COC(=O)CC4CC5CCC4C5)o3)c3ccccc3n2)cc1OC (centres undefined) | active: 9.2 µM | 
11 | O=C1CNC(=S)N1C1CCCCCC1 |  | inactive: 14.8%
12 | O=C(/C=C/c1ccccc1)NC(=S)Nc1ccc(CN2CCOCC2)cc1 | inconclusive: 23.1 µM [cytotoxic, single point] | 
13 | Cc1ccc2scc(N3CCN(c4ccccc4)CC3)c(=O)c2c1 |  | inactive: -3.14%
14 | O=C(CSCc1nc2cccnc2n1C1CCCCC1)NCc1cccc(Br)c1 |  | inactive: 0%
15 | NC(=O)c1sc2nc(N3CCOCC3)c3c(c2c1N)CCCC3 | inconclusive: 18.4 µM [cytotoxic, single point] | 
16 | CCCCN1C(=O)/C(=C/C=C2\Oc3ccccc3N2CC)SC1=S |  | inactive: -1.79%
17 | CCOCCCNC(=O)c1cc(Sc2ccc(F)cc2)nc2ccccc12 | active: 20.6 µM | 
18 | Oc1c(C(c2ccccc2)N2CCOCC2)ccc2ccccc12 (centres undefined) |  | inactive: -11.8%
19 | N/C(=N\c1nc2c(c(=O)[nH]1)CCC2)Nc1cccc(Cl)c1 | inconclusive: 7.31 µM [cytotoxic, partial curve] | 
20 | COc1cccc(C(=O)N=c2sc3cc(S(C)(=O)=O)ccc3n2C)c1 |  | inactive: 0%
21 | CCCC(=O)N1CCN(c2ccc(NC(=O)c3ccc(OCC)c([N+](=O)[O-])c3)cc2)CC1 | active: 11.6 µM | 
22 | CC(=O)N1N=C(c2ccccc2O)OC1(C)CC(=O)Nc1ccccc1 (centres undefined) | inconclusive: 11.6 µM [cytotoxic, partial curve] | 

Row | Structure (SMILES) | Potency | activity change, negative = cytotoxicity
23 | O=C1NC2(CCCC2)C(=O)N1Cc1cc(=O)n2ccsc2n1 | inconclusive: 29.1 µM [rising, partial curve, poor fit] | 
24 | CCc1ccc(NC(=O)c2c(Cl)nc(C)c(Cl)c2C)cc1 | inconclusive: 29.1 µM [cytotoxic, single point] | 
25 | O=C(Nc1cc(Cl)cc(Cl)c1)N1CCCC1 |  | inactive: -1.25%
26 | CN(C)CCNc1nc(Oc2cccc(F)c2)c2sccc2n1 |  | inactive: 0%
27 | O=C(Nc1ccc(F)cc1)C(c1ccccc1OC(F)(F)F)N1CCN(c2cccc(C(F)(F)F)n2)CC1 (centres undefined) | inconclusive: 25.9 µM [cytotoxic, partial curve, poor fit] | 
28 | Fc1ccccc1CSc1nnc(-c2cccs2)o1 | inconclusive: 20.6 µM [cytotoxic, partial curve, poor fit] | 
29 | Cc1ccc(-n2c(O)c(/C=N/NC(=O)C3COc4ccccc4O3)c3ccccc3c2=O)cc1 (centres undefined) | inconclusive: 29.1 µM [cytotoxic, single point] | 
30 | CCc1nnc(NC(=O)c2ccc(Br)c(S(=O)(=O)N3CCOCC3)c2)s1 | inconclusive: 20.6 µM [cytotoxic, partial curve, poor fit] | 
31 | COc1cc(Cl)c(NS(=O)(=O)c2ccc3[nH]c(=O)ccc3c2)c(OC)c1 | inconclusive: 29.1 µM [rising, single point] | 
32 | O=C(Nc1cc(Br)ccc1O)c1cc(-c2ccco2)on1 | inconclusive: 16.4 µM [cytotoxic, single point] | 
33 | COc1cc(C2C(C(=O)c3cccs3)=C(O)C(=O)N2c2cc(C)on2)ccc1O (centres undefined) |  | inactive: 4.16%
34 | N#CC1=C(N)C(C#N)(C#N)C(c2ccc[nH]2)C2CCCC=C12 (centres undefined) | inconclusive: 32.6 µM [cytotoxic, single point] | 
35 | COc1ccc(C2CC(c3cccs3)=NN2C(=O)CSc2nc(=O)n3ccc(C)cc3n2)cc1 (centres undefined) | inconclusive: 7.31 µM [cytotoxic, partial curve] | 
36 | NS(=O)(=O)c1ccc(CNC(=O)CCS(=O)(=O)Cc2ccccc2)cc1 |  | inconclusive: 4.28%
37 | Cc1cccc(OCCN2C(=O)c3ccccc3C2=O)c1 | inconclusive: 23.1 µM [rising, single point] | 
38 | C=CCNc1nc(N2CCOCC2)c(C#N)c2c1CN(C)CC2 |  | inconclusive: -54.9% [cytotoxic]
39 | Cc1ccc(-c2nnc(N3CCN(C(=O)c4ccco4)CC3)c3ccccc23)cc1 | inconclusive: 29.1 µM [cytotoxic, single point] | 
40 | Cc1cccc(NC(=S)NNC(=S)NCc2ccccc2)c1 | inconclusive: 18.4 µM [cytotoxic, single point] | 
41 | CCOC(=O)[C@]12CCCC=C1N(CCC1=CCCCC1)C(=O)[C@H](CC(=O)NCCCN1CCCC1=O)C2 | inconclusive: 7.31 µM [cytotoxic, partial curve] | 
42 | CN(C)S(=O)(=O)c1ccc(Cl)c(C(=O)NC2CCCCCCC2)c1 | inconclusive: 16.4 µM [cytotoxic, partial curve, poor fit] | 
43 | Cc1ccc2c(Cl)cc(Cl)c(OCC(=O)Nc3cccc(S(N)(=O)=O)c3)c2n1 | inconclusive: 14.6 µM [cytotoxic, partial curve] | 
44 | CCOC(=O)c1c(C)[nH]c(C)c1S(=O)(=O)NCCN1CCN(c2cc(Cl)ccc2C)CC1 | inconclusive: 29.1 µM [cytotoxic, single point] | 

Some of the entries above in a different format:
Row,Structure (SMILES),Potency,"activity change, negative = cytotoxicity"
6,COc1cc(OC)cc(C(=O)N[C@H](C(=O)Nc2nc3ccccc3[nH]2)C(C)C)c1,active: 14.6 µM,
26,CN(C)CCNc1nc(Oc2cccc(F)c2)c2sccc2n1,,inactive: 0%
35,COc1ccc(C2CC(c3cccs3)=NN2C(=O)CSc2nc(=O)n3ccc(C)cc3n2)cc1 (centres undefined),"inconclusive: 7.31 µM [cytotoxic, partial curve]",
